These are literature values, as cited in paper PMC3602246 (BMC Pharmacology & Toxicology, 2013).

The target in data set [1] is DOR. The settings on record: read-out: Ki, affinity binding to the DOR; cited from earlier work.
Data set [2] deals with KOR. The note with it: read-out: Ki, affinity binding to the KOR; cited from earlier work.
In data set [3] the target is MOR. The settings on record: read-out: Ki, affinity binding to the MOR; cited from earlier work.

One may read the Ki as the dissociation constant of the complex between target and ligand, obtained from inhibition or displacement. With `COc1cccc(C2(O)CCCCC2CN(C)C)c1` (stereo not drawn) [Tramadol], the Ki was 57.7 µM in data set [1], 42.7 µM in data set [2] and 2.4 µM in data set [3].
